Test: Effect of interference sugars on DBA2+ based conductimetric sensor (solution resistance)
Experimental: To a reservoir in a device set up as depicted shown in FIG. 3, 1 mL of the initial testing solution (2 mM DBA2+P and 2.5 mM Na3PO4, pH=7.6) was added. Direct current voltage is 0 mV due to the same material for two electrodes. Alternating current voltage was set at 20 mV, and the impedance was scanned vs. frequency from 10 Hz to 10 MHz (FIGS. 4A-4C). At 0.1 MHz, the capacitive reactance is very small compared to the resistance (R) of the solution, and thus this frequency was used for the following tests.
To the testing solution, trace quantities (2-5 μL) of a concentrated (0.5 or 2 M) glucose aqueous solution were continuously added. Glucose solutions were added every 30 minutes with concentrations spanning the diabetes-relevant range, (i.e. [glucose]=0-30 mM). The resistance of solution vs. time was collected for 30 min after each addition. After adding glucose to 30 mM, the testing solution was diluted to 12 mM by adding 1.5 mL of fresh testing solution. 1.5 mL was then discharged after mixing and the resistance of the remaining 1 mL solution was monitored.
Interference effects from other sugars, i.e. fructose, galactose, maltose, and lactose, were examined. Tests were performed at two different glucose concentrations typically experienced in diabetes, 5 mM (i.e. a physiological concentration of glucose) and 20 mM (i.e. a pathophysiological concentration of glucose) in 1 mL of testing solution. In these tests, interferent concentrations were higher or equal to 2.5 times the maximum plasma concentration (MPC). To the testing solution containing glucose, 2 μL or 5 μL of one of the interference solutions (containing fructose, galactose, maltose, or lactose) were added and the solution resistance (R) was monitored. The interference by 1 mM fructose or galactose was tested due to the considerable high affinity compared to the other […].

[1] = added to testing solution with 5 mM or 20 mM glucose, FIG. 7B

SMILES	effect on solution resistance (R), in words [1]	effect on solution resistance (R), in words (high glucose (20 mM) conditions, 1 mM fructose)
O=C[C@H](O)[C@@H](O)[C@@H](O)[C@H](O)CO [Galactose, galactose]	negligible effect	
O=C(CO)[C@@H](O)[C@H](O)[C@H](O)CO [Fructose, fructose]		only a transient increase
OC[C@H]1O[C@H](O[C@H]2[C@H](O)[C@@H](O)[C@H](O)O[C@@H]2CO)[C@H](O)[C@@H](O)[C@@H]1O [Maltose, maltose]	no significant change	
OC[C@H]1O[C@@H](O[C@H]2[C@H](O)[C@@H](O)C(O)O[C@@H]2CO)[C@H](O)[C@@H](O)[C@H]1O (stereo partly shown) [Lactose, lactose]	no significant change	

From patent publication US20220204531A1, “DIBORONIC ACID COMPOUNDS AND METHODS OF MAKING AND USING THEREOF” (The Regents of The University of California, priority 2020, published 2022)
